Test results: the supplement of paper PMC7858590
± gives the standard deviation of the averaged measurements. Over roughly 3,800 compounds, “cell shape (eccentricity) Z-score vs DMSO control” has its median near 1.1; the lowest 2% begin near -4.7. The list shows a part of the results.

What follows are compounds tested on human monocyte-derived macrophages (M0) (assay: cell shape (eccentricity) Z-score vs DMSO control; higher = more elongated, M2-like morphology). Details: 20 µM; 24 h; macrophage state: M0 (M-CSF).
`COc1cc(/C(C)=C/C(C)=C\C(=O)O)oc(=O)c1C` was tested, and the “cell shape (Z-score)” value was 0.555 ± 2.6.
`CCN1CCC[C@H]1CNC(=O)c1c(OC)ccc(Br)c1OC` was tested, and the “cell shape (Z-score)” value was 0.216.
With `CN(C)CCCSC(=N)N` the “cell shape (Z-score)” value was 0.27.
With `Cc1cc2nc3c(=O)[nH]c(=O)nc-3n(C)c2cc1C=O` the “cell shape (Z-score)” value was -7.12.
With `CC(=O)OCC(=O)[C@@]1(O)CCC2C3CCC4=CC(=O)CC[C@]4(C)C3C(=O)C[C@@]21C` (stereo not given in full) the “cell shape (Z-score)” value was -0.245.
`c1ccc2c(CC3=NCCN3)cccc2c1` was tested, and the “cell shape (Z-score)” value was 0.474.
In the case of `Cc1nnc(NS(=O)(=O)c2ccc(N)cc2)s1`, the “cell shape (Z-score)” value is reported as 0.834.
In the case of `CC(=O)N[C@@H](C(=O)O[C@H]1CCC(C)(C)[C@@H]2CCC3=C(COC3=O)[C@@]12C)C(C)C`, the “cell shape (Z-score)” value is reported as -3.83.
For `COc1cc([C@@H]2c3cc4c(cc3C(OC3O[C@@H]5COC(C)O[C@H]5[C@H](O)[C@H]3O)C3COC(=O)[C@@H]32)OCO4)cc(OC)c1O` (stereo not given in full), the “cell shape (Z-score)” value was -1.12.
With `C[C@]12C=CC(=O)C=C1CCC1C3C[C@@H](O)[C@](O)(C(=O)CO)[C@@]3(C)C[C@H](O)[C@@]12F` (stereo not given in full) the “cell shape (Z-score)” value was -1.59.
`O=c1c(O)c(-c2ccc(O)cc2)oc2cc(O)cc(O)c12` was tested, and the “cell shape (Z-score)” value was 1.35.
For `COc1cc(O)cc(C)c1C(=O)OC1C(CO)OC(n2ccc(=O)[nH]c2=O)C1OC(C)=O` (stereo not given), the “cell shape (Z-score)” value was 0.402 ± 3.5.
In the case of `C[C@@H](Oc1cc(-n2cnc3ccc(CN4CCN(C)CC4)cc32)sc1C(N)=O)c1ccccc1C(F)(F)F`, the “cell shape (Z-score)” value is reported as 3.02.
For `CC1CCC2(OC1)OC1CC3C4CC=C5C[C@@H](O)CC(O)[C@]5(C)C4CC[C@]3(C)C1C2C` (stereo not given in full), the “cell shape (Z-score)” value was -0.562.
`O=c1c(O[C@@H]2OC[C@H](O)[C@H](O)[C@H]2O)c(-c2ccc(O)cc2)oc2cc(O)cc(O)c12` was tested, and the “cell shape (Z-score)” value was 0.285 ± 2.6.
`CC1=Nc2ccc(Cl)cc2S(=O)(=O)N1` was tested, and the “cell shape (Z-score)” value was 2.3.
With `NC(=O)Nc1cc(-c2cccc(F)c2)sc1C(=O)N[C@H]1CCCNC1` the “cell shape (Z-score)” value was 11.9.
For `COc1c(CC(=O)c2cc3c(cc2O)OC(C)(C)C(O)C3)ccc2c1C=CC(C)(C)O2` (stereo not given), the “cell shape (Z-score)” value was 0.402.
With `O=C(Nc1ncc([N+](=O)[O-])s1)c1cccs1` the “cell shape (Z-score)” value was 0.677.
`COc1cc(C(=O)OCC2(O)COC(OCC3OC(Oc4c(OC)cc(CO)cc4OC)C(O)C(O)C3O)C2O)cc(OC)c1O` (stereo not given) was tested, and the “cell shape (Z-score)” value was 0.862.
With `CC(C)N(CCCNC(=O)Nc1ccc(C(C)(C)C)cc1)CC1OC(n2ccc3c(N)ncnc32)[C@H](O)[C@@H]1O` (stereo not given in full) the “cell shape (Z-score)” value was 3.91.
`CC(C)N1C(=O)S/C(=C/c2ccc(Sc3nc4ccccc4[nH]3)o2)C1=O` was tested, and the “cell shape (Z-score)” value was 1.64.
With `C/C=C(\CO)C(=O)O[C@H]1[C@H](O)[C@@H](C(=O)OC)O[C@@H]2C[C@H]3OC(n4cnc5c(N)ncnc54)[C@H](OC)[C@H]3O[C@]21O` (stereo not given in full) the “cell shape (Z-score)” value was 1.87 ± 0.22.
In the case of `COC(=O)C(NC(=O)c1cccc(NC=O)c1O)C(C)O` (stereo not given), the “cell shape (Z-score)” value is reported as 3.11.
`Oc1ccc(OCc2ccccc2)cc1` was tested, and the “cell shape (Z-score)” value was 4.59.
`CC1(C)CC(=O)c2c(C(F)(F)F)nn(-c3ccc(C(N)=O)c(N[C@H]4CC[C@H](O)CC4)c3)c2C1` was tested, and the “cell shape (Z-score)” value was 1.84.
For `O=C(O)C1=CCCN(CCON=C(c2ccccc2)c2ccccc2)C1`, the “cell shape (Z-score)” value was 1.06.
`CN(C)C(=O)n1nnnc1Cc1ccc(-c2ccccc2)cc1` was tested, and the “cell shape (Z-score)” value was 12.8.
In the case of `O=C(Cc1ccccc1)Nc1nc2ccc(Cl)cc2c2nc(-c3ccco3)nn12`, the “cell shape (Z-score)” value is reported as 0.721.
`C[C@@H](NC(=O)/C(C#N)=C\c1ccc(O)c(O)c1)c1ccccc1` was tested, and the “cell shape (Z-score)” value was 0.038.
In the case of `CC(N/C(=N/C#N)Nc1ccncc1)C(C)(C)C` (stereo not given), the “cell shape (Z-score)” value is reported as 2.86.
`CC1OC(OC2C(O)C(CO)OC(O[C@H]3CC[C@@]4(C)C(CC[C@]5(C)C4CC=C4C6CC(C)(C)CC[C@]6(C(=O)OC6OCC(OC7OCC(O)C(O)C7O)C(O)C6O)CC[C@]45C)C3(C)C)C2O)C(O)C(OC2OCC(O)(CO)C2O)C1O` (stereo not given in full) was tested, and the “cell shape (Z-score)” value was -0.504.
`CC(C)C1NC(=O)C(CC2(O)c3ccccc3N3C(=O)C(Cc4ccccc4)NC32)NC1=O` (stereo not given) was tested, and the “cell shape (Z-score)” value was 2.65.
In the case of `CCCCN1CCC(CCC(=O)c2cc(Cl)c(N)cc2OC)CC1`, the “cell shape (Z-score)” value is reported as 2.08.
`O=C(O)c1cc(N(Cc2ccccc2O)Cc2ccccc2O)ccc1O` was tested, and the “cell shape (Z-score)” value was 1.4.
With `CC[C@@H]1CN2C(=O)N(C)c3nc(-c4ccccc4)[nH]c3C2=N1` the “cell shape (Z-score)” value was 1.33.
In the case of `CC1OC(OC2C(O)C(C)OC(OCC3OC(OC4C(C)OC(Oc5cc(O)c6c(=O)c(O)c(-c7ccc(O)c(O)c7)oc6c5)C(O)C4O)C(O)C(O)C3OC(=O)/C=C/c3ccc(O)cc3)C2O)C(O)C(O)C1O` (stereo not given), the “cell shape (Z-score)” value is reported as 1.33 ± 0.17.
`O=c1c(O[C@@H]2O[C@H](CO)[C@@H](O)[C@H](O)[C@H]2O)c(-c2ccc(O)cc2)oc2cc(O)cc(O)c12` was tested, and the “cell shape (Z-score)” value was 1.96.
With `CCC(=O)NCC[C@@H]1CCc2ccc3c(c21)CCO3` the “cell shape (Z-score)” value was 0.718.
With `C[C@H]1C(=O)N2c3ccccc3[C@@]3(O)C[C@@H]4C(=O)N[C@@](C)(c5nc6ccccc6c(=O)n54)N1[C@@H]23` the “cell shape (Z-score)” value was 2.16.
`CC1=CC(=O)CC(C)(C)[C@@]1(O)/C=C/C(C)O[C@@H]1O[C@H](CO)[C@@H](O)[C@H](O)[C@H]1O` (stereo not given in full) was tested, and the “cell shape (Z-score)” value was 0.399.
`COc1ccc(CCC(=O)c2ccc(OC)cc2O)cc1` was tested, and the “cell shape (Z-score)” value was 2.54.
With `CCCCCCCCC[C@@H](O)CC(=O)CCc1ccc(O)c(OC)c1` the “cell shape (Z-score)” value was 0.92.
`CC(C)=CCc1c(O)ccc2ccc(=O)oc12` was tested, and the “cell shape (Z-score)” value was 0.548.
With `CC/C=C\[C@H](O)[C@H](O)C1=C(C)C(=O)[C@]2(O1)C(=O)N[C@@](OC)(C(=O)c1ccccc1)C2O` (stereo not given in full) the “cell shape (Z-score)” value was -1.34.
With `CC(C)NC[C@@H](O)COc1cccc2ccccc12` the “cell shape (Z-score)” value was -1.95.
In the case of `COC(=O)C1=C(C)NC(C)=C(C(=O)OC)C1c1ccccc1[N+](=O)[O-]`, the “cell shape (Z-score)” value is reported as 1.68.
In the case of `C[C@]1(CO)CN(c2cc(C(=O)Nc3ccc4c(c3)-c3c(c(C(N)=O)nn3-c3ccc(F)cc3)CC4)c(Cl)cn2)C[C@@]1(C)CO`, the “cell shape (Z-score)” value is reported as 5.22.
For `CC(NCCC(c1ccccc1)c1ccccc1)c1ccccc1` (stereo not given), the “cell shape (Z-score)” value was 5.83.
For `O=C(O)c1cn(-c2ccc(F)cc2)c2cc(Cl)c(F)cc2c1=O`, the “cell shape (Z-score)” value was -3.88.
With `c1ccc2c(Cc3c[nH]c4ccccc34)c[nH]c2c1` the “cell shape (Z-score)” value was 0.117.
With `O=C1c2ccccc2C(=O)c2c1ccc(O)c2O` the “cell shape (Z-score)” value was -0.12.
In the case of `O=C(/C=C/c1ccc(O)cc1)OC[C@H]1O[C@@H](Oc2cc(O)c3c(c2)OC(c2ccc(O)cc2)CC3=O)[C@H](O)[C@@H](OC(=O)/C=C/c2ccc(O)cc2)[C@@H]1O` (stereo not given in full), the “cell shape (Z-score)” value is reported as -0.756.
In the case of `COc1cc(OC)c2ccc(=O)oc2c1CC(O)C(C)(C)O` (stereo not given), the “cell shape (Z-score)” value is reported as 1.01 ± 1.3.
`CC(C)OC(=O)c1cn(Cc2c(F)cccc2F)c2sc(-c3ccc(NC(=O)C(C)C)cc3)c(CN(C)Cc3ccccc3)c2c1=O` was tested, and the “cell shape (Z-score)” value was 0.269.
